Results reported in publication doi:10.1101/869123.
Read-outs that look alike come from different tables or passages of the source. Results are given in words; binding and its absence hold for the method and conditions named.

Chains of the proteins cited; added tags and fusions are not shown. Lines headed by an entry give the natural chain unless they say otherwise; changes in a name come on top. A line that says so, or that is headed by a name, gives the form on record, which may keep a tag or linker.
His-tagged CRIPT^8C-S (cysteine-lacking mutant) expressed in HeLa cells (Q9P021, form named): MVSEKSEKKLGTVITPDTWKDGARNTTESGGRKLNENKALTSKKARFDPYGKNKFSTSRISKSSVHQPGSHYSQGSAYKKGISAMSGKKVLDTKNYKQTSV

What was measured:
[1] = target: His-tagged CRIPT^8C-S (cysteine-lacking mutant) expressed in HeLa cells (human) (UniProt Q9P021)
[2] = target: His-tagged CRIPT^8C-S (cysteine-lacking mutant) expressed in HeLa cells (human) (UniProt Q9P021); assay: non-reducing and reducing gel electrophoresis with anti-His immunoblot

With “His-tagged CRIPT^8C-S (cysteine-lacking mutant) expressed in HeLa cells (from UniProt Q9P021 1-101)” the binding [1] was “no binding (tested: 2µg in one gel well)” and the binding [2] was “no binding”.
